For one molecule, binding results are on record in patent CN114773485A.

The chains behind the UniProt entries cited, without tags or fusion partners. Residues count along the entry.
UniProt Q9NZQ7, residues 19-290: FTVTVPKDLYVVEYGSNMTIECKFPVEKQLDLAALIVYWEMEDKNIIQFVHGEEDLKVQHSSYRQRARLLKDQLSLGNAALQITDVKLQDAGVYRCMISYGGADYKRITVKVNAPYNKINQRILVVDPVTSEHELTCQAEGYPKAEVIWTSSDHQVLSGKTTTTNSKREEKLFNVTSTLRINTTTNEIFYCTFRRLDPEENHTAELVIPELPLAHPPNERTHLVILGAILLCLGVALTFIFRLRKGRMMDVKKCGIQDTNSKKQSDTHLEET

The test concerns the target PD-L1 on CHO-PD-L1 cells (UniProt Q9NZQ7). Briefly: flow cytometry on CHO-PD-L1 cells.

These are yes or no findings as the source states them, for the method shown. Some binding calls cover weakened binding; strength is not graded here.

B1: 人源化抗PD-L1抗体156-BM12 (antibody, V domains shown)
VH: QVQLVQSGPELKKPGASVKISCKASGYTFTDYYMNWVRQAPGQSLEWIGDINPNNGDTSYNQKFKGRVTLTRDTSTSTVYMELRSLRSEDTAVYYCARSVMDYWGQGTLVTVSS
VL: EIVLTQSPALLSLSPGERVTLSCSASSSVNYVYWYQQKPGQAPRPLIYLTFNLASGIPARFSGSGSGTDFTLTISSLEPEDFAVYYCQQWSSNPLTFGGGTKVEIK
Turning to B1, the binding entry is listed as “binds”.
